In PubChem BioAssay AID540276 (National Center for Advancing Translational Sciences (NCATS), 2011):
Where “and” joins values, the source holds several entries; their conditions need not be identical. Equal values may be shown once. The campaign covered roughly 300,000 compounds. About 5,400 (1.8%) were called active. The inconclusive results got no clear call from the source; some entries with a clear call stand among them for comparison. Calls follow the shape of the full dose curve; tested in HEK293 cells. A potency beside an inconclusive call is a rough fit, not a confirmed value.

Assay: qHTS for inhibitors of binding or entry into cells for Marburg Virus
Settings: Marburg virus pseudotyped entry inhibition, cell reporter; activity change, negative = inhibition: at 37.8 µM (top of the series) unless noted
% is scaled to controls: 0 for no effect and ±100 for the full control effect; potency is read from the fitted curve at half-maximal effect.

Row | Compound | Potency | activity change, negative = inhibition
1 | O=C(CC1CCCC1)NCCS(=O)(=O)N1CCN(c2ccc(F)cc2)CC1 | inconclusive: 5.62 µM [activator, single point] | 
2 | O=S(=O)(NC1c2cccc3cccc(c23)C1Sc1ncccn1)c1ccccc1 (stereo not given) | inconclusive: 35.5 µM [inhibitor, single point] | 
3 | COc1ccc(CC(=O)Nc2sc(Cc3ccccc3)c(C)c2C(N)=O)cc1 | inconclusive: 29.1 µM [inhibitor, single point] | 
4 | O=c1[nH]c(CSc2nnc(COc3ccccc3)n2-c2ccccc2)nc2ccccc12 |  | inactive: 3.27%
5 | Cc1cccn2c(=O)nc(SCC(=O)NCCc3ccccc3)nc12 | inconclusive: 3.55 µM [activator, partial curve, poor fit] | 
6 | O=C(COC(=O)c1c2c(nc3ccccc13)/C(=C\c1cccs1)CCC2)Nc1ccccc1Cl | inactive and inconclusive: 35.5 µM [inhibitor, single point] | 
7 | C=CCOc1cccc(C2C(C(=O)c3ccc(C)o3)=C(O)C(=O)N2CCN(C)C)c1 (stereo not given) |  | inconclusive: 7.57% [activator] [at 46.1 µM]
8 | O=C(Nc1cc2c(cc1Cl)OCCO2)c1ccco1 | inconclusive: 3.26 µM [activator, full curve, poor fit] | 
9 | CCN(CC)S(=O)(=O)c1ccc(N2CCOCC2)c(NC(=O)C23CC4CC(CC(Cl)(C4)C2)C3)c1 | inconclusive: 25.1 µM [inhibitor, single point] | 
10 | O=S(=O)(c1ccc2ccccc2c1)N1CCN(C(=S)Nc2ccc(F)c(Cl)c2)CC1 | inconclusive: 8.2 µM [inhibitor, partial curve] | 
11 | Cc1cc(C)n(-c2cc(C)c(C)cc2Br)n1 | inconclusive: 35.5 µM [activator, single point] | 
12 | O=C(N/N=C/c1ccccc1[N+](=O)[O-])c1ccc(COc2ccccc2-c2ccccc2)cc1 | inconclusive: 3.55 µM [inhibitor, full curve, poor fit] | 
13 | Cn1cnnc1Sc1ccc(S(C)(=O)=O)cc1[N+](=O)[O-] | inconclusive: 35.5 µM [inhibitor, single point] | 
14 | Nc1nc(SCc2ccccc2Cl)nc2nc3c(cc12)CCCC3 |  | inactive: -8.71%
15 | CC(C)COc1ccccc1C1CC(=O)Nc2cc3c(cc21)OCO3 (stereo not given) | inconclusive: 2 µM [inhibitor, full curve, poor fit] | 
16 | CCc1ccc(/C=N/NC(=O)c2nnn(-c3nonc3N)c2CN2CCc3ccccc32)cc1 | inconclusive: 6.31 µM [inhibitor, partial curve] | 
17 | Cc1[nH]c(=O)[nH]c(=O)c1S(=O)(=O)NCCOC12CC3CC(CC(C3)C1)C2 | inconclusive: 2.59 µM [inhibitor, partial curve, poor fit] | 
18 | CCOC(=O)C(C(=O)Nc1ccc(C)cc1)C1CCCCC1 (stereo not given) | inconclusive: 0.562 µM [inhibitor, full curve, poor fit] | 
19 | CCN(CC)S(=O)(=O)c1cccc(NC(=O)/C=C/c2cccc([N+](=O)[O-])c2)c1 | inconclusive: 17.8 µM [inhibitor, single point] | 
20 | O=C(NCc1nnc(SCC(=O)N2CCOCC2)o1)c1c(F)cccc1Cl |  | inactive: 19% [at 46.1 µM]
21 | CC(=O)OCC(=O)N1N=C(c2ccc3ccccc3c2)CC1c1ccccc1 (stereo not given) |  | inactive: -0.751% [at 46.1 µM]
22 | Cc1ccc(S(=O)(=O)N2CCN(C(=O)CN3CCCC3)C2)cc1 | inconclusive: 0.0282 µM [inhibitor, full curve, poor fit] | 

Row | Compound | Potency | activity change, negative = inhibition
23 | Cc1[nH]c2ccccc2c1CCNC(=O)c1ccc2c(c1[N+](=O)[O-])C(=O)c1ccccc1C2=O | inconclusive: 22.4 µM [inhibitor, single point] | 
24 | Cc1ccccc1Nc1nc(N)nc(COC(=O)CC2CC3CCC2C3)n1 (stereo not given) | active: 14.1 µM | 
25 | Cc1cccnc1NC(=O)c1cc2ccccc2oc1=O | inconclusive: 2.82 µM [activator, full curve] | 
26 | Cc1ccc(NC(=O)Nc2cc(S(C)(=O)=O)ccc2Cl)cc1 |  | inactive: 11.6% [at 46.1 µM]
27 | Clc1ccccc1Cc1cn2cc(-c3ccccc3)nc2s1 | inconclusive: 15.8 µM [activator, partial curve, poor fit] | 
28 | COc1cc(/C=C2\CCC(C3CCCC3)C2=O)cc(OC)c1OC (stereo not given) | inconclusive: 4.47 µM [inhibitor, partial curve, poor fit] | 
29 | CCOC(=O)C1CCN(C(=O)COc2ccc(Cl)cc2)CC1 | inconclusive: 7.94 µM [activator, partial curve, poor fit] | 
30 | O=C(CCC(=O)OCC(=O)c1ccc(Br)cc1)Nc1cccc2cccnc12 | inconclusive: 29.1 µM [activator, single point] | 
31 | CCN1CCN(S(=O)(=O)c2ccc(OC)cc2)CC1 |  | inactive: 25.7%
32 | Cc1ccc(C(=O)c2coc3c2C(=O)C(=O)c2ccccc2-3)cc1 | inconclusive: 18.3 µM [inhibitor, single point] | 
33 | CCc1nn(C)c2c(=O)c(=O)c2n(C)[nH]1 | inconclusive: 0.0891 µM [inhibitor, full curve, poor fit] | 
34 | COCCNC(=O)c1cc2c(Cl)nc3ccc(C)cc3c2s1 | inconclusive: 6.31 µM [activator, single point] | 
35 | CC(=O)Oc1ccc(C(=O)Nc2cccc(NC(=O)c3ccco3)c2)cc1 |  | inactive: -7.91%
36 | Cc1ccc(CN(Cc2ccco2)C(=O)c2oc3c(C)c(C)ccc3c2C)cc1 | inconclusive: 10 µM [inhibitor, single point] | 
37 | COc1ccc(F)c(CN2CCCC(CNS(=O)(=O)c3cccc4cccnc34)C2)c1 (stereo not given) | inconclusive: 35.5 µM [inhibitor, single point] | 
38 | CCCNC(=O)COC(=O)c1cc2c(=O)n3ccccc3nc2s1 | inconclusive: 0.355 µM [activator, partial curve, poor fit] | 
39 | CC1CN(C(=O)Nc2ccc3c(c2)OCO3)CC(C)O1 (stereo not given) |  | inactive: 23.9%
40 | O=C(c1ccccc1)N1CCCN(c2nccc(C(F)(F)F)n2)CC1 |  | inactive: -0.202% [at 46.1 µM]
41 | CCc1c(C)[nH]n(CCC#N)c1=O | inconclusive: 29.1 µM [activator, single point] | 
42 | N#Cc1c(SC(C(=O)O)c2ccccc2)nc2c(c1-c1cccs1)CCCC2 (stereo not given) |  | inactive: -4.55% [at 46.1 µM]
43 | CCN(CC)S(=O)(=O)c1cccc(NC(=O)CCSc2ccc(Cl)cc2)c1 | inconclusive: 35.5 µM [inhibitor, single point] | 
44 | CN(C)CCCN(C(=O)c1cccs1)c1nc2cc3c(cc2s1)OCO3 |  | inactive: -0.334% [at 46.1 µM]

Shown in CSV form: entries from further up
Row,Compound,Potency,"activity change, negative = inhibition"
31,CCN1CCN(S(=O)(=O)c2ccc(OC)cc2)CC1,,inactive: 25.7%
32,Cc1ccc(C(=O)c2coc3c2C(=O)C(=O)c2ccccc2-3)cc1,"inconclusive: 18.3 µM [inhibitor, single point]",
33,CCc1nn(C)c2c(=O)c(=O)c2n(C)[nH]1,"inconclusive: 0.0891 µM [inhibitor, full curve, poor fit]",
34,COCCNC(=O)c1cc2c(Cl)nc3ccc(C)cc3c2s1,"inconclusive: 6.31 µM [activator, single point]",

Later entries

Row | Compound | Potency | activity change, negative = inhibition
45 | CCOC(=O)C1(CC)NC(c2ccc(N(C)C)cc2)C2C(=O)N(C)C(=O)C21 (stereo not given) |  | inactive: 4.7%
46 | CCOC(=O)c1c(C)sc(-c2c(-c3ccc(OC)c(F)c3)[nH]c3c2c(=O)[nH]c(=O)n3C)c1O |  | inactive: 4.27% [at 46.1 µM]
47 | Clc1ccc(C(c2ccccc2Cl)C(Cl)Cl)cc1 (stereo not given) | inactive | 
48 | O=C(Nc1ccc(F)c(Cl)c1)C1CCN(c2ncnc3c2nc2n3CCCCC2)CC1 |  | inactive: 12.6% [at 46.1 µM]
49 | O=C(Cc1ccc(Cl)cc1Cl)Nc1ccc(OC(F)F)c(Cl)c1 | inconclusive: 0.282 µM [inhibitor, partial curve, poor fit] | 
50 | O=c1cc(-c2ccc([N+](=O)[O-])cc2)c2cc3c(cc2[nH]1)OCCO3 | inconclusive: 6.31 µM [inhibitor, single point] | 
51 | CCC(CC)C(=O)Nc1ccc2nc(SCC(=O)N3c4ccccc4CC3C)sc2c1 (stereo not given) | inconclusive: 3.98 µM [inhibitor, full curve, poor fit] | 
52 | O=C(O)CNC(=O)/C(=C\c1ccc2c(c1)OCO2)NC(=O)c1ccc(Br)cc1 |  | inactive: 20.1% [at 46.1 µM]
53 | CCN1C(=O)c2cccc3c(S(=O)(=O)N(C(=O)c4cccnc4)c4ccc(OC)cc4)ccc1c23 | inconclusive: 3.98 µM [inhibitor, single point] | 
54 | Cn1c(Oc2ccc(F)cc2)c(C=O)c2ccccc21 | inconclusive: 14.1 µM [inhibitor, single point] | 
55 | COc1ccc(CN2C(=O)C(NC(=O)c3ccccc3OC)(C(F)(F)F)N=C2c2ccccc2)cc1 (stereo not given) | inconclusive: 10 µM [inhibitor, partial curve, poor fit] | 
56 | CCc1nc(Nc2ccc3c(c2)OCO3)c2oc3ccccc3c2n1 | inconclusive: 20 µM [inhibitor, single point] | 
57 | COc1ccc(OCCC(=O)OCC(=O)Nc2cccc(S(=O)(=O)N3CCOCC3)c2)cc1 | inconclusive: 4.47 µM [inhibitor, partial curve, poor fit] | 
58 | COC(=O)C1=C(N)Oc2cc(C)n(CCCn3ccnc3)c(=O)c2C1c1ccc(Cl)cc1 (stereo not given) | inconclusive: 35.5 µM [inhibitor, partial curve, poor fit] | 
59 | CC(=O)N1CCc2c(sc3c2c(=O)n(Cc2ccccc2)c(=O)n3CC(=O)Nc2ccc(C)c(F)c2)C1 | inconclusive: 6.31 µM [inhibitor, single point] | 
60 | CC(C)(C)N(CC#CCC(O)(c1ccccc1)C1CCCC1)CCO (stereo not given) | inconclusive: 12.6 µM [inhibitor, partial curve, poor fit] | 
61 | COc1ccc(OCC(O)Cn2c(Nc3cccc(C)c3)nc3c2c(=O)n(C)c(=O)n3C)cc1 (stereo not given) | inconclusive: 11.2 µM [inhibitor, partial curve, poor fit] | 
62 | O=C(CSc1nnc(-c2ccccc2O)o1)N1CCOCC1 | inconclusive: 6.31 µM [activator, full curve, poor fit] | 
63 | CCc1cc(=O)oc2cc(OCC(=O)N(CC)CC)c(Cl)cc12 |  | inactive: 0.612%
64 | CCCCC/C=C\C/C=C\C/C=C\CCCCC(=O)O | inconclusive: 35.3 µM [inhibitor, single point] | 
65 | CC(C)c1ccc2oc(=O)cc(CN3CCN(c4ccccc4)CC3)c2c1 | inconclusive: 25.1 µM [inhibitor, single point] | 
